Data taken from ChEMBL document CHEMBL3988442, “University of Dundee, Small-Polar-MMV Screening Library” (2021).

Protein sequences, listed by entry. Tags and fused reporters are not part of them. Residues count along the entry.
UniProt I6X8D2, whole entry: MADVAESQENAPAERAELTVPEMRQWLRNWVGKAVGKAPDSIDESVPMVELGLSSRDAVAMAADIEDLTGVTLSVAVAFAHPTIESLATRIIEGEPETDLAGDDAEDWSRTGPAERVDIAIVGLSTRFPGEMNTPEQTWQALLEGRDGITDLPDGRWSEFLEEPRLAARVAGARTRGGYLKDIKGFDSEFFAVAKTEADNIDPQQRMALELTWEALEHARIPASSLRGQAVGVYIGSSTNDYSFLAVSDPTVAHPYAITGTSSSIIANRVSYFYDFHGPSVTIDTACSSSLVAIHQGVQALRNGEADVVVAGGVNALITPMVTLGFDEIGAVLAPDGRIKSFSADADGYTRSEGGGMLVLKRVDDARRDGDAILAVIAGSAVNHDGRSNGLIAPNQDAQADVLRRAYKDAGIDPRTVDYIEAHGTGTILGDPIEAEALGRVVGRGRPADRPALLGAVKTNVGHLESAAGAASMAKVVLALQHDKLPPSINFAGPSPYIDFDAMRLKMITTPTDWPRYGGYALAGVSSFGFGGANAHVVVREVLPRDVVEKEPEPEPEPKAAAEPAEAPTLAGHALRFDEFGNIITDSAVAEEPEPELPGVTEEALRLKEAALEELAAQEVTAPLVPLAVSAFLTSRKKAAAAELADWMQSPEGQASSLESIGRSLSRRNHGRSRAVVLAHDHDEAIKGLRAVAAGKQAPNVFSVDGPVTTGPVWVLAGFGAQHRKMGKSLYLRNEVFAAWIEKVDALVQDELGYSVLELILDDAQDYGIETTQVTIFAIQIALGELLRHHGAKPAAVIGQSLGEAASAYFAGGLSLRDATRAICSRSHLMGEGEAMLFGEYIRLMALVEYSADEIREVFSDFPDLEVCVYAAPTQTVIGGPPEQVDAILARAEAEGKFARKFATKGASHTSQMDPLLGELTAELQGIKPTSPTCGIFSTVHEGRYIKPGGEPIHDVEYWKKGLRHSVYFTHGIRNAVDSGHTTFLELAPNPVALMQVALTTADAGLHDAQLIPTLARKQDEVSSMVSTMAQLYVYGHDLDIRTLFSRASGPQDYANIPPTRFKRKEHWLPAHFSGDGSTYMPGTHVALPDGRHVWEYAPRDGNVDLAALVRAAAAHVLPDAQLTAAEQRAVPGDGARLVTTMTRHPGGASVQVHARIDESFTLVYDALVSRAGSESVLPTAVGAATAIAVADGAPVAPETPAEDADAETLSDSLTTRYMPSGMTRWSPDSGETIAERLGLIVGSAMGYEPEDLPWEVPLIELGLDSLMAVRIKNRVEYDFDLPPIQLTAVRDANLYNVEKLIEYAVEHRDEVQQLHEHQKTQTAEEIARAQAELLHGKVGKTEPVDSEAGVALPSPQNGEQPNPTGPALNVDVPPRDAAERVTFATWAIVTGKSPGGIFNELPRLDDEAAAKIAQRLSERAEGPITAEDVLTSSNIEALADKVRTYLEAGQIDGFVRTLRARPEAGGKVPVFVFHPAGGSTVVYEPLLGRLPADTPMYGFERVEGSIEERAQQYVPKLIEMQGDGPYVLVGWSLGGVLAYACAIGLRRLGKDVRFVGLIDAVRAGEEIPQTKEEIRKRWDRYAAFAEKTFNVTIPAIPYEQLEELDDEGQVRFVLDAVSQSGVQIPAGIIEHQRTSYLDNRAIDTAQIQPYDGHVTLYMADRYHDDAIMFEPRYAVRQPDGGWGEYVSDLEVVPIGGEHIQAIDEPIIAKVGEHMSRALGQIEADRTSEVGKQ
UniProt A4I591, 1-473: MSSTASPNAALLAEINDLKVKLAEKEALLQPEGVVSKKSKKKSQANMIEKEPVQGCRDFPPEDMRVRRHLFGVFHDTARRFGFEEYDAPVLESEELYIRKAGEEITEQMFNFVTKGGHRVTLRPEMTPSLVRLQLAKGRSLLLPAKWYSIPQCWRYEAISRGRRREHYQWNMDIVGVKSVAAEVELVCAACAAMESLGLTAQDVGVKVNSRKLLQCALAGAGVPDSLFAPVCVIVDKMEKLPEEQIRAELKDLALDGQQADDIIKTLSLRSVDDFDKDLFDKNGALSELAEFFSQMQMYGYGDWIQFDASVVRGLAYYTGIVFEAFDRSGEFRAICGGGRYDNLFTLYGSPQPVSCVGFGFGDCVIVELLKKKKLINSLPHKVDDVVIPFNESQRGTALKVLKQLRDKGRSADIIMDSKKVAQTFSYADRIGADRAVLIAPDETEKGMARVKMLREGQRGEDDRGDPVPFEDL
UniProt P9WPC5, whole entry: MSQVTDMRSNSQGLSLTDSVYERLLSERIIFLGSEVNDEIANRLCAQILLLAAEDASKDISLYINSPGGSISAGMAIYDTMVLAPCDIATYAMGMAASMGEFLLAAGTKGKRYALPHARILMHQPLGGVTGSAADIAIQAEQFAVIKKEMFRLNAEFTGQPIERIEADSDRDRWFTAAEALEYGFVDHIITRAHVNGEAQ
UniProt P9WPC3, whole entry partner: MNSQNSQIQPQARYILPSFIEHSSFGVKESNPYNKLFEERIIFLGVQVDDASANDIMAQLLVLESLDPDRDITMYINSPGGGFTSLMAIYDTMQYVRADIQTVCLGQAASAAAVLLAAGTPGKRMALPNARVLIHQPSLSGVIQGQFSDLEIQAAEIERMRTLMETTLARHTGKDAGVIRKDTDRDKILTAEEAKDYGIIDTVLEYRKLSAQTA
UniProt P9WNZ1, whole entry: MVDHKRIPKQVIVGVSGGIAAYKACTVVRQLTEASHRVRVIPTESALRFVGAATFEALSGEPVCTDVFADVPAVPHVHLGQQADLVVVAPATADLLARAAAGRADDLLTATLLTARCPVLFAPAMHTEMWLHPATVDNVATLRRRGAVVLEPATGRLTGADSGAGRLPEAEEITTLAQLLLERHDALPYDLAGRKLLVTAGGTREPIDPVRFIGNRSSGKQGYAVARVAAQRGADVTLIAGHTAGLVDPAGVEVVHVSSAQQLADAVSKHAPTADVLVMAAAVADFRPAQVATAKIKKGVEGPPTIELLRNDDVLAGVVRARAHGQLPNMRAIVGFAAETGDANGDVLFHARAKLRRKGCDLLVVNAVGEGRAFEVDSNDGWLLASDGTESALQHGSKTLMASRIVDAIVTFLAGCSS

Pks13 thioesterase: 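Enzyme assay of the thioesterase domain of polyketide synthase 13; the read-out is not stated. Target: Polyketide synthase Pks13, Mycobacterium tuberculosis (UniProt I6X8D2). Tested at 30 µM. The record gives no direction; the compounds picked for IC50 retests had high values, so higher reads as stronger inhibition. Size under these conditions: about 67,000 compounds, about 300 of them at 50% or above in at least one test.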
LiHisRS: 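Enzyme assay of histidyl-tRNA synthetase; the read-out is not stated. Target: Histidine-tRNA ligase, Leishmania infantum (UniProt A4I591). Tested at 30 µM. The record gives no direction; compounds that gave an IC50 in retests scored well above the rest, so higher reads as stronger inhibition. The assay is labelled LdHisRS but filed under L. infantum. Of about 69,000 compounds tested this way, about 410 (0.6%) reached 50% or more in at least one test.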
Leishmania in macrophages: 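Cell assay of Leishmania donovani living inside macrophages; the read-out is not stated. Compounds at 30 µM. Higher reads as stronger inhibition (inferred: compounds with an IC50 in retests scored well above the rest). Size under these conditions: about 69,000 compounds, about 1,000 of them at 50% or above in at least one test.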
ClpP1P2: 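Protease assay of ClpP1P2, read by the AMC dye that it sets free. Target: ClpP1P2, Mycobacterium tuberculosis (UniProt P9WPC5 and UniProt P9WPC3). Tested at 50 µM. Direction is inferred from only a few compounds that gave an IC50; most scored high, so higher reads as stronger inhibition. Most other retested compounds had strongly negative values. Of about 69,000 compounds tested this way, about 10 (0.015%) reached 50% or more in at least one test.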
Toxoplasma: 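Assay of Toxoplasma gondii numbers, read through their beta-galactosidase reporter with a colour substrate. Compounds at 10 µM. The record gives no direction; the compounds picked for IC50 retests had high values, so higher reads as fewer parasites. Of about 67,000 compounds tested this way, about 260 (0.38%) reached 50% or more in at least one test.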
CoaBC: 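Enzyme assay of CoaBC with a phosphate dye (Biomol Green) read at 650 nm. Target: Coenzyme A biosynthesis protein CoaBC, Mycobacterium tuberculosis (UniProt P9WNZ1). Concentration: 30 µM. Higher reads as stronger inhibition, judged from the few compounds that gave an IC50. Most strong results did not repeat in a second test. Of about 67,000 compounds tested this way, about 40 (0.06%) reached 50% or more in at least one test.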

Results are given as percent effect. How 0% and 100% were set is not recorded. Most values in the screen are low, and negative values occur. Compounds were drawn at random from those tested, without regard to their results. Two or more numbers in one place are separate tests of the same structure; such repeats can differ widely. A dash means the value is not listed here; it may have been measured.

| compound | Pks13 thioesterase | LiHisRS | Leishmania in macrophages | ClpP1P2 | Toxoplasma | CoaBC |
|---|---|---|---|---|---|---|
| `COc1ccc(C(N)c2cccc(S(C)(=O)=O)c2)cc1` (centres unmarked) | -9.399 | 17.57 | 12.26 | 3.502 | 2.591 | 11.34 |
| `[H][C@@]12CCN(Cc3ccco3)C[C@@]1([H])O[C@H](c1ccnc(C)n1)C2` | - | - | 11.04 | - | 6.956 | - |
| `O=C(CN1CCCc2cc(F)cc(F)c21)Nc1ccc(Br)cn1` | 12.88 | 14.52 | 0.6853 | 4.466 | 44.85 | -0.6061 |
| `O=C(NC[C@]12COC[C@H]1CN(Cc1nccs1)C2)c1ccsc1` | -3.926 | 0 | - | 6.333 | - | 0 |
| `CC(=O)N1CCOC(c2cncc(CCC(=O)N(C)C)n2)C1` (centres unmarked) | -0.1179 | 12.68 | 6.231 | -3.244 | - | 4.988 |
| `O=C(Nc1ccccc1F)c1nn(C2CCS(=O)(=O)C2)c2c1CCCC2` (centres unmarked) | -36.51 | 25 | -16.02 | -9.78 | -12.56 | 4.684 |
| `c1ncn(CC2CN(Cc3nc(-c4ccsc4)no3)CCO2)n1` (centres unmarked) | -15.61 | 16.07 | 17.86 | -10.72 | -1.049 | 5.703 |
| `Cc1ccc(CN2C[C@H]3CC[C@@H]2CN(Cc2[nH]cnc2C)C3)o1` | -16.75 | 15.83 | - | -24.86 | - | 1.366 |
| `Cc1cc(C)c2nc(C)c(C(=O)N3CCC(CCN(C)C)CC3)cc2c1` | -6.021 | 14.39 | 7.686 | -19.09 | 14.5 | 5.263 |
| `Cn1c(CCC(=O)N2CCCC3(CC2)CNC(=O)O3)nc2cccnc21` (centres unmarked) | -2.372 | -6.557 | -41.81 | 12.29 | 36.26 | -1.077 |
| `Cc1cnn(CC2CCCN2Cc2noc(CC(C)C)n2)c1` (centres unmarked) | -16.69 | 9.565 | 4.199 | -11.01 | 0.8283 | 4.198 |
| `CC(C(=O)Nc1ccnn1C(C)C)N1CCN(Cc2ccon2)CC1` (centres unmarked) | -11.4 | 3.03 | -17.82 | -7.563 | 0.4042 | 0.6048 |
| `CC(C)C[C@H](N)COc1cccc(F)c1Oc1cccc(Cl)c1` | 27.25 | 41.43 | 98.08 | -70.56 | 1.833 | -4.126 |
| `CCOCCCNC(=O)c1cc(C(C)C)nc(N2CCCCCC2)n1` | -8.352 | 17.48 | -18.62 | 20.01 | -9.085 | 9.287 |
| `c1ccc(-c2cc(CN3C[C@H]4CC[C@H]3C4)on2)cc1` | -5.536 | -11.67 | - | -8.491 | - | 4.069 |
| `Cn1ccnc1CN1CCc2ncnc(N3CCCC(C#N)C3)c2CC1` (centres unmarked) | 27.81 | 14.29 | -7.012 | -13.74 | -8.83 | 7.438 |
| `O=C(O)C(F)(F)F.[H][C@@]12C[C@H](C(=O)NC)CN(CCOc3ccc(Cl)cc3)[C@]1([H])CCO2` | - | - | 7.457 | - | 2.147 | - |
| `CNCC(=O)N[C@H]1CN(c2nc(C)c3c(n2)CCCC3)C[C@@H]1C1CC1` | - | 8.73 | 61.72 | -3.226 | 10.03 | -3.686 |
| `O=C(c1cnco1)N1CCC(Cc2cnc3ccccc3c2)CC1` | 14.95 | 23.78 | 28.26 | -9.322 | -27.62 | -7.264 |
| `Cc1cc(NC(=O)C(C)Nc2cccc(COCc3ccco3)c2)no1` (centres unmarked) | -17.86 | 17.39 | -13.92 | 3.154 | 7.761 | 4.843 |
| `CN(C)c1cncc(-c2ccnc3c2ccn3C)n1` | 43.24 | 16 | 14.85 | -133 | 7.961 | 1.463 |
| `O=C(NCc1ccnc(C2CCCOC2)n1)c1cccs1` (centres unmarked) | -291.2 | 9.859 | -26.79 | -5.378 | 12.38 | 4.686 |
| `CC(C)N1CCN2C(=O)N(C3CCCCC3)C[C@H]2C1` | -25.35 | 18.92 | - | -7.156 | - | 19.06 |
| `O=C(O)C(F)(F)F.[H][C@@]12CCN(CC3CC3)C[C@@]1([H])O[C@H](c1nc(C)no1)C2` | - | - | 27.57 | - | 13.3 | - |
| `CCN1CC2(CCC1=O)CCN(Cc1nncn1C(C)C)CC2` | -18.98 | 15.83 | 11.02 | -1.343 | -0.5708 | - |
| `O=C(O)C(F)(F)F.[H][C@]12C[C@H](C(=O)NC)N(S(C)(=O)=O)[C@@]1([H])CN(C(=O)c1ccccn1)C2` | - | - | -6.969 | - | 4.432 | - |
| `O=C(Cc1c(F)cccc1Cl)Nc1cc(N2CCOCC2)ncn1` | -17.99 | 9.333 | -75.54 | -6.863 | -23.64 | 2.982 |
| `COc1cc(CNC(C)Cn2cccn2)cc(Cl)c1OC` (centres unmarked) | 1.779 | 10.43 | - | -1.896 | - | 4.774 |
| `Cc1nocc1C(=O)N1CCOC2(COCCN(C(C)C)C2)C1.O=C(O)C(F)(F)F` (centres unmarked) | - | - | 29.92 | - | 9.587 | - |
| `COCc1nc(CNC(=O)c2cc(C)c(C)[nH]c2=O)no1` | -26.08 | 10.42 | 5.146 | 11.02 | 2.923 | -0.2571 |
| `CC(CNC(=O)N1CCN(CC(F)F)CC1)Cc1cccs1` (centres unmarked) | -5.701 | 15.38 | 5.175 | -1.519 | -5.295 | 4.762 |
| `CSc1nccc(N2CCC(NCc3ccc4nsnc4c3)CC2)n1` | 0.2396 | 30.09 | 23.02 | -8.74 | -20.9 | 9.686 |
| `CCn1c(Cn2cccn2)nnc1C1CCN(Cc2ccc(C)o2)CC1` | 2.817 | 9.589 | 2.744 | 7.568 | -3.556 | -3.1 |
| `CC(O)CNCc1ccccc1C(F)(F)F` (centres unmarked) | -24.47 | -2.941 | - | 5.677 | - | -3.666 |
| `Cc1ccc(C(=O)N2C[C@H](OCc3cccnc3)[C@H]3COC[C@H]32)cn1` | -11.78 | 9.722 | - | -2.886 | - | -5.926 |
| `O=C(O)C(F)(F)F.[H][C@@]12C[C@@H](c3nc(C)no3)CN(Cc3cc(C)c(C)o3)[C@]1([H])CCO2` | - | - | 31.34 | - | -7.61 | - |
| `CC(C)=CCCC(C)CN1CCC(n2cc(CO)nn2)CC1` (centres unmarked) | -30.92 | 18.18 | 1.57 | -3.755 | 2.529 | -19.13 |
| `O=C1NCC(C(=O)Nc2ncc(Cc3ccc(F)cc3F)s2)N1` (centres unmarked) | 1.453 | 5.263 | 5.573 | 3.381 | -4.954 | 5.59 |
| `O=C(CSc1ccccc1)Nc1cnn(CC(=O)N2CCCO2)c1` | -18.68 | 12.68 | 23.33 | -2.67 | 10.17 | 10.98 |
| `O=C(NC1CCN(C2CC2)CC1)c1cc(Cl)ccc1-n1cnnn1` | -9.03 | -9.091 | 1.134 | 7.766 | 4.099 | -10.69 |
| `O=C(O)C(F)(F)F.[H][C@]12CCN(Cc3ccccn3)C[C@@]1([H])OCCN(C(=O)c1ccsc1)C2` | - | - | -13.68 | - | -4.451 | - |
| `CN(CCCN1CCOCC1)[C@@H]1c2ccccc2C2(CCNCC2)[C@H]1O` | 6.13 | 3.774 | 10.37 | -1.156 | -0.2245 | -22.53 |
| `CC(C)CO[C@H]1CN(S(=O)(=O)c2cn(C)cn2)[C@@H]2CCCO[C@H]12` | -13.61 | 1.01 | - | -0.007137 | - | -0.4831 |
| `CCC(=O)N1CCC2(CC1)CC(Oc1ccccc1)CO2` (centres unmarked) | -24.39 | 21.62 | 24.75 | -7.949 | -1.363 | 6.483 |
| `Cc1noc(C)c1CN1CC[C@H]2OCC[C@@]2(C(=O)N2CCCO2)C1` | -18.11 | 17.65 | - | 3.585 | - | 3.732 |
| `O=C(O)c1cc(S(=O)(=O)Nc2cc(Cl)ccc2F)cc2c1OCCO2` | -33.18 | 9.565 | 2.294 | -10.28 | 10.24 | -3.435 |
| `CS(=O)(=O)N1CCOC2(CCN(c3ncccn3)CC2)c2ccccc21` | -35.64 | 24.56 | 12.86 & 18.55 | -0.4847 | 2.205 | 1.057 |
| `CCN(CC)CCCNc1nc(C)nc2c1CCN(C)C2.O=C(O)CC(O)(CC(=O)O)C(=O)O` | - | - | 53.93 | - | 2.074 | - |
| `CCN(CCNC(=O)c1cccc(C)c1C)C1CC1` | -8.002 | 14.04 | 7.406 | 2.258 | -13.09 | 0.1242 |
| `N#Cc1ccc(OC[C@]23COC[C@H]2CN(Cc2ccccn2)C3)nc1` | -8.627 | 11.29 | - | -17.07 | - | -0.6165 |
| `O=C(O)C(F)(F)F.O=c1cccnn1CC1CN(CC2CCCC2)Cc2nccn2C1` (centres unmarked) | - | - | -7.847 | - | 1.899 | - |
| `Fc1ccc(CNCc2nnc3n2CC(C(F)(F)F)CC3)cc1` (centres unmarked) | -8.869 | 25.64 | 2.528 & -9.3 | -15.25 | -15.17 | 2.29 |
| `Cc1cc(F)cc(S(=O)(=O)NCCCN2CCC(O)CC2)c1` | -5.6 | 8.491 | 6.303 | 15.37 | -7.14 | 2.727 |
| `CN(Cc1ccco1)Cc1cnc2n1CCN(c1ccccn1)CC2` | -35.5 | 15.38 | - | -5.7 | - | - |
| `CC(Cn1ccnc1)NC(=O)N1CCN(Cc2cccnc2)CC1` (centres unmarked) | -28.73 | 29.6 | 17.04 | 8.909 | -12 | -0.7979 |
| `COc1ccc(C2=CCN(C(=O)C3CCC3)CC2)cc1` | -13.45 | 8.036 | 9.246 | -34.95 | -14.26 | 5.236 |

The first 6 entries again:

compound	Pks13 thioesterase	LiHisRS	Leishmania in macrophages	ClpP1P2	Toxoplasma	CoaBC
COc1ccc(C(N)c2cccc(S(C)(=O)=O)c2)cc1 (centres unmarked)	-9.399	17.57	12.26	3.502	2.591	11.34
[H][C@@]12CCN(Cc3ccco3)C[C@@]1([H])O[C@H](c1ccnc(C)n1)C2	-	-	11.04	-	6.956	-
O=C(CN1CCCc2cc(F)cc(F)c21)Nc1ccc(Br)cn1	12.88	14.52	0.6853	4.466	44.85	-0.6061
O=C(NC[C@]12COC[C@H]1CN(Cc1nccs1)C2)c1ccsc1	-3.926	0	-	6.333	-	0
CC(=O)N1CCOC(c2cncc(CCC(=O)N(C)C)n2)C1 (centres unmarked)	-0.1179	12.68	6.231	-3.244	-	4.988
O=C(Nc1ccccc1F)c1nn(C2CCS(=O)(=O)C2)c2c1CCCC2 (centres unmarked)	-36.51	25	-16.02	-9.78	-12.56	4.684